Source: PMC7031079, “ATBS1-INTERACTING FACTOR 2 negatively regulates dark- and brassinosteroid-induced leaf senescence through interactions with INDUCER OF CBF EXPRESSION 1” (Journal of Experimental Botany, 2019)
These are yes or no findings as the source states them, for the method shown. For part of these data: In cells and extracts the contact can be indirect. For part of these data: Binding can be weak; no strength is given. For part of these data: Sequences can lack the tags named with a protein. Blank lines part the entries; values can stand above or below the molecule they belong to.

How the values were obtained:
[1] = target: T1, full-length protein of ICE1 (ICE1FL-pGBKT7) (Arabidopsis thaliana) (UniProt Q9LSE2); experiment: two-hybrid; pGBKT7 and pGADT7 constructs co-transformed into S. cerevisiae AH109; beta-galactosidase activity with chlorophenol red-beta-D-galactopyranoside as substrate
T1 sequence: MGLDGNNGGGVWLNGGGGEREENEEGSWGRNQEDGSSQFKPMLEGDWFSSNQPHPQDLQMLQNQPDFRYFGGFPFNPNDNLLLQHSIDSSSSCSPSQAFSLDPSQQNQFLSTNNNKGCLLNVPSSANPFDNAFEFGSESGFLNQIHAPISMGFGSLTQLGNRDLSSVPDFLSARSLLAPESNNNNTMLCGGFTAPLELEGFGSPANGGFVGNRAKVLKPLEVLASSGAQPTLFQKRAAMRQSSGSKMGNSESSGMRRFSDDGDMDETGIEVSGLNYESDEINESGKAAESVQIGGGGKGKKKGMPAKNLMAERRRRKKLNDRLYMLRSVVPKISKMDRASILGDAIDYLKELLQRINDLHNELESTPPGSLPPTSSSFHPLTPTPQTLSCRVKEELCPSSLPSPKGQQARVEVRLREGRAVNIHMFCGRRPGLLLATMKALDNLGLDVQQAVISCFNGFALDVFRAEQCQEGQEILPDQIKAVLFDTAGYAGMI

[2] = target: C-terminal-deleted ICE1, myc-fused (ICE1dC-myc) (Arabidopsis thaliana); experiment: co-IP; co-infiltrated tobacco (N. benthamiana) leaves; total proteins immunoprecipitated with anti-myc antibody on Protein G magnetic beads; blots with anti-GFP and anti-myc
[3] = target: N-terminal-deleted ICE1, myc-fused (ICE1dN-myc) (Arabidopsis thaliana); experiment: as above

binding [1]: no binding
Molecule: C-terminal-deleted AIF2 (AIF2dC-pGADT7) (Arabidopsis thaliana) (domain or fragment)

binding [2]: no binding
binding [3]: binds
B1: AIF2FL-nYFP (natural protein, Arabidopsis thaliana, UniProt Q9C8Z9 1-221, looked up)
chain: MASLISDIEPPTSTTSDLVRRKKRSSASSAASSRSSASSVSGEIHARWRSEKQQRIYSAKLFQALQQVRLNSSASTSSSPTAQKRGKAVREAADRALAVSARGRTLWSRAILANRIKLKFRKQRRPRATMAIPAMTTVVSSSSNRSRKRRVSVLRLNKKSIPDVNRKVRVLGRLVPGCGKQSVPVILEEATDYIQALEMQVRAMNSLVQLLSSYGSAPPPI
